According to patent US9150840B2, “Isolated bacterial strain of Achromobacter sp. MTCC 5605 and a highly enantioselective epoxide hydrolase isolated therefrom” (COUNCIL OF SCIENTIFIC & INDUSTRIAL RESEARCH, priority 2011, dated 2015):
For at least one compound, name, drawing or mass did not settle the structure. Some entries repeat one wording, which the source may state once for all of them.

Tested on: Achromobacter sp. MTCC 5605
Experiment: Antibiotic sensitivity of the isolated strain
Assay type: cell-based

Compound	Antibiotic sensitivity
COc1c(N2C[C@@H]3CCCN[C@@H]3C2)c(F)cc2c(=O)c(C(=O)O)cn(C3CC3)c12 [Moxifloxacin]	Sensitive to Erythromycin (10 mcg), Gentamycin (10 mcg),
CO[C@H]1/C=C/O[C@@]2(C)Oc3c(C)c(O)c4c(O)c(c(/C=N/N5CCN(C)CC5)c(O)c4c3C2=O)NC(=O)/C(C)=C\C=C\[C@H](C)[C@H](O)[C@@H](C)[C@@H](O)[C@@H](C)[C@H](OC(C)=O)[C@@H]1C [Rifampicin]	Sensitive to Erythromycin (10 mcg), Gentamycin (10 mcg),
CN(C)[C@@H]1C(O)=C(C(N)=O)C(=O)[C@@]2(O)C(O)=C3C(=O)c4c(O)cccc4[C@@](C)(O)[C@H]3C[C@@H]12 [Tetracycline]	Sensitive to Erythromycin (10 mcg), Gentamycin (10 mcg),
